This note sets out measurements from PMC9414874, “New Benzimidazoles Targeting Breast Cancer: Synthesis, Pin1 Inhibition, 2D NMR Binding, and Computational Studies” (Molecules, 2022).

Chains of the proteins cited; added tags and fusions are not shown.
UniProt Q13526, whole entry: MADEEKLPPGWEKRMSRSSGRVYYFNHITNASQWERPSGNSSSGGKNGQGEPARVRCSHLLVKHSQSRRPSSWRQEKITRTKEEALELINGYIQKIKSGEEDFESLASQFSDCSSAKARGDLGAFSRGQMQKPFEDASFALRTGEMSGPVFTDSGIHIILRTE

Structures were worked out from names or drawings and are uncertain.

This assay concerns the target Pin1 (Homo sapiens, UniProt Q13526). Kind of assay: Pin1 inhibition assay (SensoLyte Green Pin1 Assay Kit).

On to `CN(C)c1ccc(C2CC(c3nc4cc(Cl)c(Cl)cc4[nH]3)=NO2)cc1` (centres unmarked) [Compound 8, 4-(3-(5,6-Dichloro-1H-benzo[d]imidazol-2-yl)-4,5-dihydroisoxazol-5-yl)-N,N-dimethylaniline], for which the Pin1 %inh is, setting by setting: (conc 1 ng/ml) 49.1%; (conc 100 ng/ml) 84.8%.
